Results from PubChem BioAssay AID1347414 (National Center for Advancing Translational Sciences (NCATS), 2020).
This list was built around the results that the source calls inconclusive (neither active nor inactive); the mix of calls is not that of the screen. Where the call is inconclusive, the potency comes from a doubtful curve fit. Active and inactive are the calls of the source. Calls come from the whole dose curve; as a rule, active = well fitted inhibition curve with a large enough effect; inconclusive = small, poorly fitted or top-dose-only effect; inactive = no such curve, though single readings can be large or run the other way.

Experiment: qHTS to identify inhibitors of the type 1 interferon - major histocompatibility complex class I in skeletal muscle: Secondary screen by immunofluorescence; note: nearly all actives have a fitted effect of over 70% in size;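 for activity change, negative = inhibition: digitonin at 100 µM served as the cytotoxic control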
Conditions: C25cl48 myoblasts, IFN-b induced HLA-ABC immunofluorescence, 24 h, Viability; series mostly up to 49.8 µM; activity change, negative = inhibition: at the top concentration
Description: Assay Submitter (PI): Travis B. Kinder Ph.D. & James Inglese Ph.D. Assay Development and Screening Technology Laboratory (ADST) National Center for Advancing Translational Sciences (NCATS), Rockville, MD National Institute of Health (NIH), Bethesda, Maryland Idiopathic inflammatory myopathies, collectively referred to as myositis, are a group of rare autoimmune diseases characterized by skeletal muscle inflammation, weakness, and usually accompanied by systemic pathologies of the skin, lungs, or vasculature. Current immunosuppressive therapies and glucocorticoids are often not curative and are accompanied by harsh side effects, especially in children with juvenile myositis. We initiated a drug repurposing and development program to identify more targeted, less toxic therapeutics to treat myositis. Although its cause is not known, muscle from a subset of patients have an abundance of the inflammatory type 1 interferon (IFN) and a down-stream product major histocompatibility complex class I (MHC class I), which are both thought to contribute to damage and weakness. We conducted quantitative high throughput screening (qHTS) on 6,576 compounds (4,679 unique) through a series of cell-based assays to identify those that inhibit the IFN-stimulated expression of MHC class I in muscle precursor cells (myoblasts). The compound identification and evaluation strategy utilized a primary screen with reporter-tagged MHC class I in genome-engineered myoblasts, ATP content counter screen for viability, HLA-ABC immunofluorescence secondary screen, and HLA-B RT-qPCR tertiary screen. To verify activity of compounds identified by qHTS in HLA-B HiBit reporter cells, compounds were assayed by high throughput HLA-ABC immunofluorescence. Briefly, 216 compounds identified from primary and counter screening as inhibitory with minimal cytotoxicity were dispensed into black/clear bottom […] using acoustic dispensing in an 11-point, 1:3 titration with a high final concentration of 50 uM. Normal immortalized human myoblasts C25cl48 were added to the plates with 4.0 ng/ml human IFN-beta for 24 hours, fixed, stained by immunofluorescence for HLA-ABC protein, nuclei, and cell body, and analyzed by laser scanning cytometry as described by Auld et al., 2006. References: Auld DS, Johnson RL, Zhang Y, Veith H, Jadhav A, Yasgar A, Simeonov A, Zheng W, Martinez ED, Westwick JK, Austin CP, Inglese J. 2006. Fluorescent protein-based cellular assays analyzed by laser-scanning microplate cytometry in 1536-well plate format. Methods Enzymol 414:566-89. doi:10.1016/S0076-6879(06)14029-X
PROTOCOL TABLE (as described by Inglese et al., 2007) SEQUENCE No. (e.g., 1, 2, 3, etc.); […] (e.g., Cells, Incubation, Reagent, etc.); VALUE; DESCRIPTION 0; Compounds; 25 nl; Follow-up compounds dispensed at 25 nl/well with Labcyte Echo 655 acoustic dispenser in triplicate Aurora ChemLib 1536K black/clear bottom, low base, TC 1536-well plates (00019324). Also dispensed 25 nl/well DMSO control, ruxolitinib IFN-b inhibitor control titration, and digitonin cytotoxic control 1a; Cells; 5 uL; Multidrop Combi (Thermo Scientific) to seed 125 cells/well into eight plates in 5 ul/well of iHSKM growth medium (GM) without dexamethasone into columns 1+2. Add metal lids with gas-exchange holes 1b; Cells; 5 uL; Multidrop Combi (Thermo Scientific) to seed 125 cells/well into eight plates in 5 ul/well of iHSKM GM without dexamethasone + 4 ng/ml IFN-b into columns 3 - 48. […]
% is set by controls: 0 for no effect and ±100 for the full control effect; potency is the fitted concentration of half-maximal effect.

Compound	Potency	activity change, negative = inhibition
COc1cc(C(=O)N2CCC(N3CCN(C)CC3)CC2)ccc1Nc1ncc2c(n1)N(C)c1ccccc1C(=O)N2C	inconclusive: 32.4 µM [cytotoxic, partial curve]	–
CC(C)(C)c1ccc(S(=O)(=O)/C=C/C#N)cc1	active: 3.24 µM	–
CN(C)C/C=C/C(=O)Nc1ccc(C(=O)Nc2cccc(Nc3ncc(Cl)c(-c4c[nH]c5ccccc45)n3)c2)cc1	inconclusive: 32.4 µM [cytotoxic, single point]	–
CCOc1cc2ncc(C#N)c(Nc3ccc(OCc4ccccn4)c(Cl)c3)c2cc1NC(=O)/C=C/CN(C)C	inconclusive: 9.13 µM [cytotoxic, full curve, poor fit]	–
Cc1ncsc1-c1ccc([C@H](C)NC(=O)[C@@H]2C[C@@H](O)CN2C(=O)[C@@H](NC(=O)COCCCOCCNC(=O)C[C@@H]2N=C(c3ccc(Cl)cc3)c3c(sc(C)c3C)-n3c(C)nnc32)C(C)(C)C)cc1	inconclusive: 28.9 µM [cytotoxic, single point]	–
Cc1cc(Nc2cc(CN3CCOCC3)c3nc(C)c(Cc4ccc(Cl)cc4F)n3n2)n[nH]1	active: 20.5 µM	–
CCOC(=O)N1CCN(/[N+]([O-])=N/Oc2ccc([N+](=O)[O-])cc2[N+](=O)[O-])CC1	active: 14.5 µM	–
CC1(COc2ccc3c(c2)ncn3-c2ccc3cccc(N4CCC(N)CC4)c3n2)COC1	active: 7.26 µM	–
CC(C)c1cc(-c2n[nH]c(=O)n2-c2ccc3c(ccn3C)c2)c(O)cc1O	–	inactive: 3.75%
COCCN1CCN(Cc2ccc(-c3n[nH]c4c3C(=O)c3c(NC(=O)NN5CCOCC5)cccc3-4)cc2)CC1	active: 20.5 µM	–
c1cc(Nc2cc(C3CC3)[nH]n2)nc(Nc2ccc3nc[nH]c3c2)n1	inconclusive: 22.9 µM [cytotoxic, partial curve, poor fit]	–
CCCOc1ccc2nc(NC(=O)OC)[nH]c2c1	–	inactive: -8.07%
CCCC(=O)O[C@]1(C(=O)CO)CC[C@H]2[C@@H]3CCC4=CC(=O)CC[C@]4(C)[C@H]3[C@@H](O)C[C@@]21C	–	inactive: 4.37%
Nc1ccccc1NC(=O)c1ccc(CNc2nccc(-c3cccnc3)n2)cc1	–	inactive: -4.92%
CN(C)C/C=C/C(=O)Nc1ccc(C(=O)N2CCC[C@@H](Nc3ncc(Cl)c(-c4c[nH]c5ccccc45)n3)C2)cc1	inconclusive: 28.9 µM [cytotoxic, single point]	–
CN1C/C=C/CCOc2cccc(c2)-c2ccnc(n2)Nc2cccc(c2)C1	inconclusive: 45.8 µM [cytotoxic, single point]	–
Cc1[nH]nc2ccc(-c3cncc(OC[C@@H](N)Cc4ccccc4)c3)cc12	inconclusive: 28.9 µM [cytotoxic, single point]	–
CC[C@H]1CN2CCc3cc(OC)c(OC)cc3[C@@H]2C[C@@H]1C[C@H]1NCCc2cc(OC)c(OC)cc21	inconclusive: 45.8 µM [cytotoxic, single point]	–
CC[C@@]1(O)C(=O)OCc2c1cc1n(c2=O)Cc2cc3cc(O)ccc3nc2-1	–	inactive: -2.03%
NC(=O)c1cnc2[nH]ccc2c1NC1C2CC3C[C@H]1CC(O)(C3)C2 (stereo not given in full)	–	inactive: -0.722%

Arranged by formula weight (rising): three of the compounds above.
Compound	Potency	activity change, negative = inhibition
NC(=O)c1cnc2[nH]ccc2c1NC1C2CC3C[C@H]1CC(O)(C3)C2 (stereo not given in full)	–	inactive: -0.722%
CCCC(=O)O[C@]1(C(=O)CO)CC[C@H]2[C@@H]3CCC4=CC(=O)CC[C@]4(C)[C@H]3[C@@H](O)C[C@@]21C	–	inactive: 4.37%
CC1(COc2ccc3c(c2)ncn3-c2ccc3cccc(N4CCC(N)CC4)c3n2)COC1	active: 7.26 µM	–

(more compounds)

Compound	Potency	activity change, negative = inhibition
CNC(=O)c1nn(C)c2c1C(C)(C)Cc1cnc(Nc3ccc(N4CCN(C)CC4)cc3)nc1-2	inconclusive: 32.4 µM [cytotoxic, partial curve, poor fit]	–
Cc1cc(O)c(-c2ccc([C@@H](C)CN)cc2)c2c1[nH]c(=O)c1sccc12	inconclusive: 45.8 µM [cytotoxic, single point]	–
CCc1c2c(nc3ccc(O)cc13)-c1cc3c(c(=O)n1C2)COC(=O)[C@]3(O)CC	–	inactive: 14.7%
CCS(=O)(=O)N1CCN(c2ccc(Nc3ncc(C(N)=O)c(NC4CC4)n3)cc2)CC1	inconclusive: 16.2 µM [cytotoxic, partial curve, poor fit]	–
N#Cc1c(C2CCNCC2)cc(-c2c(O)cccc2OCC2CC2)nc1N	inconclusive: 20.5 µM [cytotoxic, partial curve]	–
CO[C@H]1C(=O)[C@]2(C)[C@@H](OC)C[C@H]3OC[C@@]3(OC(C)=O)[C@H]2[C@H](OC(=O)c2ccccc2)[C@]2(O)C[C@H](OC(=O)[C@H](O)[C@@H](NC(=O)OC(C)(C)C)c3ccccc3)C(C)=C1C2(C)C	–	inactive: 0.182%
Cc1ccc(C(=O)Nc2ccc(CN3CCN(C)CC3)c(C(F)(F)F)c2)cc1C#Cc1cnc2[nH]ncc2c1	active: 12.9 µM	–
CN1CCN(c2cccc(Nc3nc4c(-c5ccc(S(C)(=O)=O)cc5)cccn4n3)c2)CC1	–	inactive: -24.5%
C=CC(=O)N1CCc2ccc(-n3c(=O)ccc4cnc5ccc(-c6cnn(C)c6)cc5c43)cc21	active: 16.2 µM	–
CC(C)c1nn(-c2c(Cl)cccc2Cl)c2nc(Cc3ccc(OCCO)cc3)[nH]c(=O)c12	–	inactive: -3.83%
C=C1C(=O)O[C@H]2C[C@H](C)C(/C=C/C(C)=O)=CC[C@H]12	inconclusive: 5.76 µM [cytotoxic, full curve, poor fit]	–
CCN1CCN(Cc2ccc(NC(=O)Nc3ccc(Oc4cc(NC)ncn4)cc3)cc2C(F)(F)F)CC1	inconclusive: 36.4 µM [cytotoxic, single point]	–
O=C1Nc2nc(-c3c(O)cccc3OCC3CC3)cc([C@@H]3CCCNC3)c2CO1	inconclusive: 20.5 µM [cytotoxic, partial curve, poor fit]	–
COc1ccc(CNc2nc(N(CCO)CCO)nc3c2ncn3C(C)C)cc1	–	inactive: -27.7%
COC(=O)Nc1nc2ccc(C(=O)c3ccccc3)cc2[nH]1	inconclusive: 11.5 µM [cytotoxic, partial curve, poor fit]	–
CO[C@H]1/C=C\C=C(\C)C(=O)NC2=CC(=O)C(NCCN(C)C)=C(C[C@@H](C)C[C@H](OC)[C@H](O)[C@@H](C)/C=C(/C)[C@@H]1OC(N)=O)C2=O	inconclusive: 22.9 µM [cytotoxic, single point]	–
N#CCNC(=O)c1ccc(-c2ccnc(Nc3ccc(N4CCOCC4)cc3)n2)cc1	inconclusive: 45.8 µM [cytotoxic, single point]	–
CC(C)(C)c1nc2c3cc[nH]c(=O)c3c3cc(F)ccc3c2[nH]1	–	inactive: -15.7%
CC(=O)c1ccc2c(c1)c1cc(C(C)=O)ccc1n2CCNC(C)C	–	inactive: 3.4%
Cn1cc(-c2ccc(-c3cncc(Cl)c3N3CCC4(CCNC4=O)CC3)cc2)cn1	inconclusive: 36.4 µM [cytotoxic, single point]	–
